PubChem BioAssay AID504764 – Drosophila RNAi Screening Center, 2011

Test: 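Knock-downs that raise or lower a Notch target reporter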 (primary screen)
Cells: Drosophila Kc167 cells
Knock-down reagent: long dsRNA against Drosophila genes
Time to read-out: about 5 days (4 days dsRNA, then 24 h after transfection)
Conditions: transfection of constitutively active membrane-tethered Notch lacking the extracellular domain, read 24 h later
Measurement: 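Light from a Notch-responsive E(spl)m3 luciferase reporter under active Notch, with control-promoter and no-Notch reporter wells to normalise; raw counts from paired wells a and b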
Direction: induced reporter light, run 1, well a and induced reporter light, run 1, well b: higher = more light from the Notch target reporter with active Notch; control promoter light, run 1, well a and control promoter light, run 1, well b: higher = more light from the viral control promoter (cell number, transfection, viability); uninduced reporter light, run 1, well a: higher = more light from the Notch target reporter without active Notch
Hit rule: 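Wells with low control signal or poorly matching duplicates excluded; duplicates averaged; per source plate, z beyond ±2 for induced/control log2 ratio or beyond ±1.8 for induced/uninduced marks a hit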
Meaning of the calls: active = modifier hit (raised or lowered Notch signal); inactive = not a hit
In all, the deposit lists about 22,000 reagents; this is an unselected part of those that have a named target and a result. Of all reagents, 403 (1.9%) got an active call. 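Unnormalised raw counts per well; ratio z-scores behind the hit calls and whether each hit raises or lowers signal are not deposited.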 A plus sign joins genes that one reagent is predicted to hit. The record does not give: the amount of reagent.

Target gene | DRSC id | induced reporter light, run 1, well a | induced reporter light, run 1, well b | control promoter light, run 1, well a | control promoter light, run 1, well b | uninduced reporter light, run 1, well a | activity call
CG3857 | DRSC18542 | 2.04e5 | 2.38e5 | 2.99e5 | 2.84e5 | 16765 | inactive
yata | DRSC15408 | 1.15e5 | 1.04e5 | 1.60e5 | 1.59e5 | 9325 | inactive
CG13170 | DRSC06298 | 94975 | 80970 | 1.04e5 | 1.10e5 | 10115 | inactive
Or35a | DRSC03389 | 98050 | 1.24e5 | 1.31e5 | 1.48e5 | 9855 | inactive
CG18004 | DRSC06705 | 1.94e5 | 1.83e5 | 2.26e5 | 2.12e5 | 15525 | inactive
Slip1 | DRSC17146 | 1.46e5 | 1.58e5 | 1.96e5 | 2.34e5 | 9370 | inactive
CG30010 | DRSC05193 | 62525 | 75910 | 86475 | 83590 | 3590 | inactive
PNKP | DRSC16512 | 96395 | 1.18e5 | 75555 | 67900 | 6040 | inactive
CG32036 | DRSC10362 | 1.15e5 | 92895 | 83260 | 64040 | 8000 | inactive
Gale | DRSC08234 | 90785 | 96800 | 1.64e5 | 1.65e5 | 7670 | inactive
CG8924 | DRSC20122 | 20915 | 24310 | 24190 | 23345 | 6320 | inactive
grp + CG31782 (retired record) | DRSC03541 | 2.37e5 | 2.42e5 | 2.64e5 | 2.18e5 | 17360 | inactive
CG31908 | DRSC21864 | – | – | – | – | – | inactive
MESR6 | DRSC10720 | 1.28e5 | 1.02e5 | 61475 | 84705 | 8335 | inactive
CG42506 (retired record) + CG43759 | DRSC19464 | 1.25e5 | 98665 | 78420 | 60940 | 8225 | inactive
CG42506 (retired record) + CG43759 | DRSC19543 | 47315 | 42460 | 36385 | 35490 | 8805 | inactive
Gpat4 | DRSC04345 | 2.08e5 | 1.73e5 | 1.56e5 | 1.62e5 | 16060 | inactive
Obp18a | DRSC19736 | 94150 | 92420 | 97240 | 1.32e5 | 11705 | inactive
Vps35 | DRSC04519 | 2.77e5 | 2.46e5 | 2.02e5 | 1.70e5 | 17695 | inactive
CG1368 | DRSC19537 | 2.25e5 | 1.90e5 | 2.24e5 | 2.77e5 | 14600 | inactive
